PubChem BioAssay AID652259 | Drosophila RNAi Screening Center | 2013

- Test: 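Identify new Wingless signalling regulators in fly cells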 (primary screen)
- Cells: Drosophila clone 8 imaginal disc epithelial cells
- Reagent: long dsRNA against Drosophila genes
- Conditions: pathway stimulated by co-transfected Wingless expression plasmid
- Measurement: 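Firefly luciferase from a tcf-site Wingless reporter, measured alongside co-transfected Renilla luciferase that tracks transfection; pathway stimulated by a Wingless plasmid; the firefly-to-Renilla ratio is not deposited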
- Reading the numbers: firefly reporter light: higher = more Wg reporter light, before normalisation; Renilla control light: higher = more transfected or surviving cells
- Hit rule: 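a knock-down is a candidate when at least two out of four statistical tests show it departing from its plate mean; one test alone signals a weak candidate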
- Meaning of the calls: active = candidate regulator (raises or lowers reporter); inactive = not a candidate
The deposit covers about 22,000 reagents; this is an unselected part of those that have a named target and a result. Over the whole deposit, 233 (1.1%) are marked active. 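Light values are raw, unnormalised plate reads; the ratio scores behind the reporter calls were not deposited.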 The record does not give: the amount of reagent, the time to read-out, the dose of the treatment.

{"gene": "CG17660", "DRSC id": "DRSC00513", "firefly reporter light, replicate 1": 12819, "Renilla control light, replicate 1": 5124, "Call": "inactive"}
{"gene": "Ald1", "DRSC id": "DRSC14109", "firefly reporter light, replicate 1": 3419, "firefly reporter light, replicate 2": 8102, "Renilla control light, replicate 1": 923, "Renilla control light, replicate 2": 2105, "Call": "inactive"}
{"gene": "CG13876", "DRSC id": "DRSC08346", "firefly reporter light, replicate 1": 5861, "Renilla control light, replicate 1": 2700, "Call": "inactive"}
{"gene": "dpn", "DRSC id": "DRSC07605", "firefly reporter light, replicate 1": 2330, "firefly reporter light, replicate 2": 4597, "Renilla control light, replicate 1": 627, "Renilla control light, replicate 2": 1985, "Call": "inactive"}

Single entries from above.
dpn [DRSC07605], firefly reporter light, replicate 1: 2330
Value for CG17660 [DRSC00513] in “Renilla control light, replicate 1”: 5124

Continued:
{"gene": "NetA", "DRSC id": "DRSC20261", "firefly reporter light, replicate 1": 17618, "Renilla control light, replicate 1": 8118, "Call": "inactive"}
{"gene": "CG8765", "DRSC id": "DRSC11041", "firefly reporter light, replicate 1": 12394, "Renilla control light, replicate 1": 2129, "Call": "inactive"}
{"gene": "Ugt37D1", "DRSC id": "DRSC02645", "firefly reporter light, replicate 1": 1908, "firefly reporter light, replicate 2": 5978, "Renilla control light, replicate 1": 964, "Renilla control light, replicate 2": 2787, "Call": "inactive"}
{"gene": "CG15369", "DRSC id": "DRSC18041", "firefly reporter light, replicate 1": 16193, "Renilla control light, replicate 1": 7243, "Call": "inactive"}
{"gene": "CG9213", "DRSC id": "DRSC20170", "firefly reporter light, replicate 1": 2021, "firefly reporter light, replicate 2": 5920, "Renilla control light, replicate 1": 816, "Renilla control light, replicate 2": 1962, "Call": "inactive"}
{"gene": "AANATL4", "DRSC id": "DRSC06774", "firefly reporter light, replicate 1": 3816, "Renilla control light, replicate 1": 1747, "Call": "inactive"}
{"gene": "wac", "DRSC id": "DRSC08349", "firefly reporter light, replicate 1": 5653, "Renilla control light, replicate 1": 2000, "Call": "inactive"}
{"gene": "CG16756", "DRSC id": "DRSC18115", "firefly reporter light, replicate 1": 14000, "Renilla control light, replicate 1": 11241, "Call": "inactive"}
